# Some of these results come from one statement about several compounds together.
# Tested on: M. abscessus subsp. abscessus CIP 104536
# Experiment: Time-kill kinetics assay
# Format: cell-based
# Description: Briefly, M. abscessus cultures were exposed to antimicrobial drugs at 4-fold increasing concentrations for 7 days at 37° C. under shaking conditions at 96 rpm. […] The drug concentrations ranged from 0.063 to 256 mg/L for both compounds. […] At day 1, 3 and 7 during drug exposure, samples were collected, centrifuged at 14000 xg to avoid anti-NTM drug carry over, serially diluted (10-fold, 10^0-10^7) and subcultured onto solid medium. […] The lower limit of detection was 5 cfu/mL (log 0.7). All experiments were performed in duplicate. Time-kill curves, as well as concentration-effect curves were generated.
SMILES,concentrations showing mycobacterial killing (up to 7 days exposure),concentrations achieving elimination (at day 3-7)
"CN(C)c1cc(CNCC(C)(C)C)c(O)c2c1C[C@H]1C[C@H]3C(N(C)C)C(O)=C(C(N)=O)C(=O)[C@@]3(O)C(O)=C1C2=O (stereo partly drawn) [Omadacycline, (4aS,5aR,12aS)-4,7-bis(dimethylamino)-3,10,12,12a-tetrahydroxy-9-((neopentylamino)methyl)-1,11-dioxo-1,4,4a,5,5a,6,11,12a-octahydrotetracene-2-carboxamide]",≥ 16 mg/L,–
"CN(C)c1cc(NC(=O)CNC(C)(C)C)c(O)c2c1C[C@H]1C[C@H]3[C@H](N(C)C)C(O)=C(C(N)=O)C(=O)[C@@]3(O)C(O)=C1C2=O [Tigecycline, tigecycline]",–,≥ 16 mg/L

# From patent US20250332178A1, “METHODS OF TREATING MYCOBACTERIAL INFECTIONS USING TETRACYCLINE COMPOUNDS” (priority 2018, published 2025)
